The assay has as its target T1, myc-tagged full length cyclin G-associated kinase (GAK) wildtype (mouse) (UniProt Q3UIZ0).
T1 sequence: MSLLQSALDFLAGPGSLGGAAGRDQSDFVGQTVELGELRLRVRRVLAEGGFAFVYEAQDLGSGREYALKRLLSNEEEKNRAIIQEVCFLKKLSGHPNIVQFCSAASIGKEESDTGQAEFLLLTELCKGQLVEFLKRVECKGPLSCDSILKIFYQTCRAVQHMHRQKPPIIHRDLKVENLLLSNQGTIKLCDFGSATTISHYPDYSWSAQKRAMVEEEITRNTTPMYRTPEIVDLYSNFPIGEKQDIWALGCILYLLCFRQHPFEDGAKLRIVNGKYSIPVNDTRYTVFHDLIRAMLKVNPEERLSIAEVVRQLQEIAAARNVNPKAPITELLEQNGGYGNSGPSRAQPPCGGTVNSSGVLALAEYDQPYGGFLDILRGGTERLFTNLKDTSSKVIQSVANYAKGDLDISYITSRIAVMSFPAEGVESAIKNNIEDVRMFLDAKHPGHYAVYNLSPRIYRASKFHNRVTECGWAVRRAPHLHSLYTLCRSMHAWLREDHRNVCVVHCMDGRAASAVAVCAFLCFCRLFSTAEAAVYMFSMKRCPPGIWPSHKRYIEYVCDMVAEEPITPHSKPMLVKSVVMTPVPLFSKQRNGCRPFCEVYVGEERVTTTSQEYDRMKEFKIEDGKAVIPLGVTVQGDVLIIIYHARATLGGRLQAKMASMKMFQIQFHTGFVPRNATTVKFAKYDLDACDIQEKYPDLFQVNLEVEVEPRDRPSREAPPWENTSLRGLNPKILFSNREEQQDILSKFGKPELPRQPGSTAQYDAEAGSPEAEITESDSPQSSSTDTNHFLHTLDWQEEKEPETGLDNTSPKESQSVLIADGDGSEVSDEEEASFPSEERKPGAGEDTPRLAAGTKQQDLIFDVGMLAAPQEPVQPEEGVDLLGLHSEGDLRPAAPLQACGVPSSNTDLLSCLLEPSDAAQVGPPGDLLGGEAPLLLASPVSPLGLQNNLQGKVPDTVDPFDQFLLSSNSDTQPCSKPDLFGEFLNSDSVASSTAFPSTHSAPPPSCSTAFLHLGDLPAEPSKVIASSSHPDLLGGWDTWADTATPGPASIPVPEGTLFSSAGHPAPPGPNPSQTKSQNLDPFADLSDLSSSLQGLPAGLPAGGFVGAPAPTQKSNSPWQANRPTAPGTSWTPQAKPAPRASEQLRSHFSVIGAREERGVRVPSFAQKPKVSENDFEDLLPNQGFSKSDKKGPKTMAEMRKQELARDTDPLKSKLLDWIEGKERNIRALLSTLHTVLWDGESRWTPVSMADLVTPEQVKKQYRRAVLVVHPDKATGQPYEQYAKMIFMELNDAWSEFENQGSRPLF
Description: co-IP; HEK 293T cells co-transfected with myc-tagged FL GAK and the HA-tagged partner; GAK immunoprecipitated (GAK antibody), partner detected by blot; HA- and myc-tagged pRK5 vectors as IP controls.

The chains behind the UniProt entries cited, without tags or fusion partners.
UniProt Q8C0T5: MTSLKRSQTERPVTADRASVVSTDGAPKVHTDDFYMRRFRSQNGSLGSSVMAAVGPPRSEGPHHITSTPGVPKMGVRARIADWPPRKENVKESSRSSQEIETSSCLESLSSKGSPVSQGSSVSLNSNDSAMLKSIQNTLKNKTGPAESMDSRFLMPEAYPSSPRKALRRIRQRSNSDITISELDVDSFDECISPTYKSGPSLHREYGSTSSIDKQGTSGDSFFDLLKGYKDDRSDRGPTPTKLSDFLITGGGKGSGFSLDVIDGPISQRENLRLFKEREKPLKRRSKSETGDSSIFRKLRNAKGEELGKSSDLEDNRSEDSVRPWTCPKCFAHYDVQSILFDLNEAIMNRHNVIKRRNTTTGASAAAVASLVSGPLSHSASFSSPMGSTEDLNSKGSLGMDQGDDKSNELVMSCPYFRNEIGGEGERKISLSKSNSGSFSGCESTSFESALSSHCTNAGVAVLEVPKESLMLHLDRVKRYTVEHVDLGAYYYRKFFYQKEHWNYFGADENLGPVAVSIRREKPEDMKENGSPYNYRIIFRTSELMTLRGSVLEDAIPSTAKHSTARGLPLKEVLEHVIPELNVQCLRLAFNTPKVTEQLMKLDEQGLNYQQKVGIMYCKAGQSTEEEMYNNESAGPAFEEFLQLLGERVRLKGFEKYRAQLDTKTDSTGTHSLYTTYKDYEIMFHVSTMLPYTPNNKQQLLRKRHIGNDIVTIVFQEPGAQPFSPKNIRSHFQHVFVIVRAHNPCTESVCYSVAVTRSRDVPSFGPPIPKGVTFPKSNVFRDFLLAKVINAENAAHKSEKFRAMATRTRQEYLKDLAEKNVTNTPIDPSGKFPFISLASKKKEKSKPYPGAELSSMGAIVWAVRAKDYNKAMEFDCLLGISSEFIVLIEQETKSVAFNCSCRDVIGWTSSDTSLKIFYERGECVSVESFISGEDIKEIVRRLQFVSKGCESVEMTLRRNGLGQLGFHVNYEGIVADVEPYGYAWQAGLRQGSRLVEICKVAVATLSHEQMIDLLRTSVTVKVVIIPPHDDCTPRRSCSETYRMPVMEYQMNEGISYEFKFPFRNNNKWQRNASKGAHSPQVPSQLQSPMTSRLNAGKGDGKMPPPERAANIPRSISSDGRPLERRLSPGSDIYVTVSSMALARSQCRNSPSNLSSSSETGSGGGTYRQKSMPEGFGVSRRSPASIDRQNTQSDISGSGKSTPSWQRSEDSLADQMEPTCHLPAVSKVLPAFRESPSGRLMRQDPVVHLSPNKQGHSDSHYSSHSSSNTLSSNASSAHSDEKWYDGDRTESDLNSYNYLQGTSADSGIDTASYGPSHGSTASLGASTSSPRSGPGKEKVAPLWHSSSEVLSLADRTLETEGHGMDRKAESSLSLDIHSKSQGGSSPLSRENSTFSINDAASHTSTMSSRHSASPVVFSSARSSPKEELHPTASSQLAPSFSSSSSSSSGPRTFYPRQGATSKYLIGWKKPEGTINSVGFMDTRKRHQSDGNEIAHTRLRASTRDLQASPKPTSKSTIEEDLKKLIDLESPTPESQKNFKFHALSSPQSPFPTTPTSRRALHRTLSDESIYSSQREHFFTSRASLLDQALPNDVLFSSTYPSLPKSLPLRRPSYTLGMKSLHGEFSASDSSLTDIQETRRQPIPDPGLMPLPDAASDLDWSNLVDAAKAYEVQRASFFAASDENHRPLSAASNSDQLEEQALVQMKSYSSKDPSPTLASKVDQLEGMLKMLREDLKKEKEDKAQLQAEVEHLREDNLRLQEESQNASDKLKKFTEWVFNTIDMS

These are yes or no findings as the source states them, for the method shown. Binding seen in cells or lysates may run through a third protein. Some results given as binding are weak or reduced against the parent protein; the word gives no strength. Where a sequence is shown, tags or fusion partners need not be part of it.

For “HA-tagged Sipa1L1 full length (signal-induced proliferation-associated 1-like protein 1) (from UniProt Q8C0T5 1-1782)”, the binding result is reported as “binds”.
